Binding data for 1 substance are collected here from paper doi:10.1101/345959.

Chains of the proteins cited; added tags and fusions are not shown. Lines headed by an entry give the natural chain unless they say otherwise; changes in a name come on top.
UniProt Q9D8H7: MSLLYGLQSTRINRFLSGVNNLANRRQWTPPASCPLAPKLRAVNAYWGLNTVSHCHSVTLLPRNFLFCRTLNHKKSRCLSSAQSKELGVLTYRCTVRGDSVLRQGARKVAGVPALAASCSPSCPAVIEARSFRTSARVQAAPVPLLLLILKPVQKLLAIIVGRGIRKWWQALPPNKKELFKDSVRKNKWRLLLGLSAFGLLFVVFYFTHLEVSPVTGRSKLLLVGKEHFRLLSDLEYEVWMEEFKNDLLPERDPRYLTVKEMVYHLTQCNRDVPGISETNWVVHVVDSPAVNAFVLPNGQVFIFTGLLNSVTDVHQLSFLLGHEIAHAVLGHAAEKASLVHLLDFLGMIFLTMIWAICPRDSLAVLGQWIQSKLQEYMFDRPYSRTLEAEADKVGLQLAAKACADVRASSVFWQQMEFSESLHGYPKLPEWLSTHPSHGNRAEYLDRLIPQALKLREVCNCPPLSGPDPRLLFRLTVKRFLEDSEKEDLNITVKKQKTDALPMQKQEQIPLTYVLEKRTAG

Assay [1] addresses T1, Mic19^ID^33-34VN-Flag (human) (UniProt Q9NX63).
T1 sequence: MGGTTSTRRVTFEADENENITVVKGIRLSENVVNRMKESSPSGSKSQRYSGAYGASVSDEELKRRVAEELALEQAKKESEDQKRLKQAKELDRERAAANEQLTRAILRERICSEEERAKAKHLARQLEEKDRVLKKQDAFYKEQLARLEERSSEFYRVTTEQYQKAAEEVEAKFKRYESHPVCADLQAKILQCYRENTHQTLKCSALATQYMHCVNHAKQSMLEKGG
Kind of assay: co-IP.

The target of a further assay is T2, Mic19-Flag (human) (UniProt Q9NX63).
T2 sequence: T1 sequence with V33I, N34D
In words: co-IP.

Substitutions are numbered along the chain they refer to. These are yes or no findings as the source states them, for the method shown. In cells and extracts the contact can be indirect. Binding can be weak; no strength is given. Tags and fused reporters may be left off the sequences shown.

Take “OMA1^E324Q-Myc (from UniProt Q9D8H7) (enzyme)”: the binding result (in assay [1]; with Mic19-Flag (human)) was “binds” throughout.
